According to the RNAGym collection of RNA variant scans (doi:10.1126/science.aae0568):
This sample is rich in variants without activity.

B1: tRNA (parent)
chain: GUUCCGUUGGCGUAAUGGUAACGCGUCUCCCUCCUAAGGAGAAGACUGCGGGUUCGAGUCCCGUACGGAACG

Variants of: B1
Assay: yeast fitness relative to wild type (ratio to wild type); higher = fitter; tRNA-Arg(CCU), competitive growth, 37 C, YPD
Outline: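 Variants of the tRNA-Arg(CCU) gene were chemically synthesised with a 3% per-site mutation rate across 69 sites and placed at the native genomic locus in Saccharomyces cerevisiae. Six parallel replicates of the pooled strains were competed in YPD at 37°C for 24 hours, and gene amplicons from the start and end populations were read by 100-nucleotide paired-end sequencing. Darwinian fitness relative to wild type was derived from changes in genotype frequencies. Genotypes required ≥ 100 starting reads, and estimates < 0.5 were set to 0.5.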

Going from GUUCCGUUGGCGUAAUGGUAACGCGUCUCGCUCCUAAGGAGAAGACUGCGGGUUCGAGUCCCGUACGUAACG [C30G G68U] to GUUCCGUUGGCGUAAUGGUAACGCGUCUCUCUCCUUAGGAGAAGACUGCGGGUUCGGGUCCCGUUCGGAACG [C30U A36U A57G A65U], the yeast fitness falls from 0.64 to ≤ 0.5.

GUUCCGUUGGCGUAAUGGUAACGCGUCUCUCUCCUACGGAGAAGACUGCGGGUUCGAGUCCCGUACGGCACG [C30U A37C A69C] and GUUCCGUUGGCGUAAUGGUAACGCGUCUCUCUCCUAAGGAGGUGACUGCGGGUACGAGUCCCGUACGGAACG [C30U A42G A43U U54A] cannot be ordered by yeast fitness: ≤ 0.5 for the first, ≤ 0.5 for the second.

GUUCCGUUGGCGUAAUGGUAACGCGUCUCUCUCCUAAGGAGAAGCCUGCGGGUUCGGGUCCUGUACGGAACG [C30U A45C A57G C62U] and GUUCCGUUGGCGUAAUGGUAACGCGUCUCUCUCCUAAGGAGAAGACUGCGGGUUCGCGUCUCGUACGGAACG [C30U A57C C61U] cannot be ordered by yeast fitness: ≤ 0.5 for the first, ≤ 0.5 for the second.

GUUCCGUUGGCGUAAUGGUAACGCGUCUCUCUCAUUAGGAGAAGACUGCGGGUUCGAGUCCAGUACGGAACG [C30U C34A A36U C62A] and GUUCCGUUGGCGUAAUGGUAACGCGUCUCUCUCCUAAGGAGAAGACUACGCGUUCGAGUCCCGUACGGAACG [C30U G48A G51C] cannot be ordered by yeast fitness: ≤ 0.5 for the first, ≤ 0.5 for the second.

Compared with GUUCCGUUGGCGUAAUGGUAACGCGUCUCUCUCCUAAGGAGAAGACUGCGCGUUCGACUCCCGUACGGAACG [C30U G51C G58C], GUUCCGUUGGCGUAAUGGUAACGCGUCUCUCUCCUAAGGAGAAGACUGCGGAUUCGAGUCCCGUACGGAACG [C30U G52A] is higher in yeast fitness: ≤ 0.5 for the first, 0.785 for the second.

First: GUUCCGUUGGCGUAAUGGUAACGCGUCUCUCUCCUAAGGAGAAGACUGCGGGUUCGAGUCCCGUACGCAACG [C30U G68C]
Second: GUUCCGUUGGCGUAAUGGUAACGCGUCUCUCACCUUUGGAGAAGACUGCGGGUUCGAGUCGCGUAUGGUACG [C30U U32A A36U A37U C61G C66U A69U]
The yeast fitness of the first is higher: 0.813 for the first, ≤ 0.5 for the second.

GUUCCGUUGGCGUAAUGGUAACGCGUCUCUCUCCAAAGGAGAAGACUGCGGGUUCGAGUCCCCUUCGGAACG [C30U U35A G63C A65U] and GUUCCGUUGGCGUAAUGGUAACGCGUCUCCAUCCUUAGGCGAAGACUGCGGCUUCGAGUCCCGUCCGGAGCG [C31A A36U A40C G52C A65C A70G] cannot be ordered by yeast fitness: ≤ 0.5 for the first, ≤ 0.5 for the second.

GUUCCGUUGGCGUAAUGGUAACGCGUCUCCAUUCUAAGGAAAAGACUGCGGGUUCGAGUCCCGUCCGGAACG [C31A C33U G41A A65C] and GUUCCGUUGGCGUAAUGGUAACGCGUCUCCAUUCUAAGGAAAAGACUGCGGGUUAGAGUCCCGUACGGAACG [C31A C33U G41A C55A] cannot be ordered by yeast fitness: ≤ 0.5 for the first, ≤ 0.5 for the second.

GUUCCGUUGGCGUAAUGGUAACGCGUCUCCAUCGUAAGGAGAAGACUGCGGGUUCAAGUCCCGUACGGAACG [C31A C34G G56A] and GUUCCGUUGGCGUAAUGGUAACGCGUCUCCAUCCUAAGGAGAAGACUGAGGGUUCAAGUCCCGUGAGCAACG [C31A C49A G56A A65G C66A G68C] cannot be ordered by yeast fitness: ≤ 0.5 for the first, ≤ 0.5 for the second.

GUUCCGUUGGCGUAAUGGUAACGCGUCUCCAUCCAUAGGAGAAGACCGCGGGUUCGAGUCCCGUAUGGAACG [C31A U35A A36U U47C C66U] and GUUCCGUUGGCGUAAUGGUAACGCGUCUCCGUCCUAAGGGGAAGACUGCGGCUUCGAGUCCCGUACGGAACG [C31G A40G G52C] cannot be ordered by yeast fitness: ≤ 0.5 for the first, ≤ 0.5 for the second.

GUUCCGUUGGCGUAAUGGUAACGCGUCUCCGUCCUAAGGAGAAGACUGCGGGUUCGAGUCCCGUCCCGAACG [C31G A65C G67C] and GUUCCGUUGGCGUAAUGGUAACGCGUCUCCGUGCUAAGGAGAAGACUGCGGGUUCGAGUCCCAUACGGAACG [C31G C33G G63A] cannot be ordered by yeast fitness: ≤ 0.5 for the first, ≤ 0.5 for the second.

GUUCCGUUGGCGUAAUGGUAACGCGUCUCCGUCUUAAGGCAAAGACUGCGGGUUCGAGUCCCGUACGGAACG [C31G C34U A40C G41A] and GUUCCGUUGGCGUAAUGGUAACGCGUCUCCGUCUUAAGGCGAAGACUGCGGGUUCGAGUCCCGUACGCAACG [C31G C34U A40C G68C] cannot be ordered by yeast fitness: ≤ 0.5 for the first, ≤ 0.5 for the second.

GUUCCGUUGGCGUAAUGGUAACGCGUCUCCGUCUUAAGGAGAAGACUGCGGGUCCGAGUCCCGUACGGAACG [C31G C34U U54C] and GUUCCGUUGGCGUAAUGGUAACGCGUCUCCGUCCUAAGGAGAAGAGUGCGGGUUCAAGUCCCGUCCCGAACG [C31G C46G G56A A65C G67C] cannot be ordered by yeast fitness: ≤ 0.5 for the first, ≤ 0.5 for the second.

First: GUUCCGUUGGCGUAAUGGUAACGCGUCUCCGUCCUAAGGAGAAGACUGCGGGUUCGAGUCCCGUAGGGAACG [C31G C66G]
Second: GUUCCGUUGGCGUAAUGGUAACGCGUCUCCGUCCUAAGGAGAAGACUGCGGCUUGGAGUCCCGUACGGAACG [C31G G52C C55G]
The yeast fitness of the first is higher: 0.587 for the first, ≤ 0.5 for the second.

Going from GUUCCGUUGGCGUAAUGGUAACGCGUCUCCGUCCAAAGGAGAAGACUACGGGUUCGAGUCCCGUACGGAACG [C31G U35A G48A] to GUUCCGUUGGCGUAAUGGUAACGCGUCUCCGUCCUAAGGAGAAGACUGCGGGUGCGAGUCCCGUACGGAACG [C31G U54G], the yeast fitness rises from ≤ 0.5 to 0.6.

GUUCCGUUGGCGUAAUGGUAACGCGUCUCCUUCCUAUGGAGAAGCCUGCGGGUUCGAGUGCCGUACGGAACG [C31U A37U A45C C60G] and GUUCCGUUGGCGUAAUGGUAACGCGUCUCCUUCCUAAGGAGCAGACUGCGGGUACGAGUCCCGUACGGAACG [C31U A42C U54A] cannot be ordered by yeast fitness: ≤ 0.5 for the first, ≤ 0.5 for the second.

GUUCCGUUGGCGUAAUGGUAACGCGUCUCCUUGCUGAGGAGAAGUCUGCGGGUUCGAGGCCCGUACGGGACG [C31U C33G A36G A45U U59G A69G] and GUUCCGUUGGCGUAAUGGUAACGCGUCUCCUUCCUAAGCAGAAGACUGCGGCUUCGAGUCCCGUACGGAACG [C31U G39C G52C] cannot be ordered by yeast fitness: ≤ 0.5 for the first, ≤ 0.5 for the second.

GUUCCGUUGGCGUAAUGGUAACGCGUCUCCUUCCUAAGUAGAAGGCUGCGAGUUCGAGUCCCGUACGGAACG [C31U G39U A45G G51A] and GUUCCGUUGGCGUAAUGGUAACGCGUCUCCUUCCUAAGGAGAAGACUGCGGCUACGAGUCCCGUAUGGAACG [C31U G52C U54A C66U] cannot be ordered by yeast fitness: ≤ 0.5 for the first, ≤ 0.5 for the second.

Compared with GUUCCGUUGGCGUAAUGGUAACGCGUCUCCUCUCUAAGGAGAAGACUGCGGGUUCGAGUCCCGUACGGAACG [C31U U32C C33U], GUUCCGUUGGCGUAAUGGUAACGCGUCUCCUUCCCAAGGGGAAGACUGCGGGUUCGAGUCCCGUUCGGAACG [C31U U35C A40G A65U] is lower in yeast fitness: 0.667 for the first, ≤ 0.5 for the second.
